Publication PMC10499817

Amino acid sequences for entries named in this document (tags omitted).
UniProt A0A509AQF6: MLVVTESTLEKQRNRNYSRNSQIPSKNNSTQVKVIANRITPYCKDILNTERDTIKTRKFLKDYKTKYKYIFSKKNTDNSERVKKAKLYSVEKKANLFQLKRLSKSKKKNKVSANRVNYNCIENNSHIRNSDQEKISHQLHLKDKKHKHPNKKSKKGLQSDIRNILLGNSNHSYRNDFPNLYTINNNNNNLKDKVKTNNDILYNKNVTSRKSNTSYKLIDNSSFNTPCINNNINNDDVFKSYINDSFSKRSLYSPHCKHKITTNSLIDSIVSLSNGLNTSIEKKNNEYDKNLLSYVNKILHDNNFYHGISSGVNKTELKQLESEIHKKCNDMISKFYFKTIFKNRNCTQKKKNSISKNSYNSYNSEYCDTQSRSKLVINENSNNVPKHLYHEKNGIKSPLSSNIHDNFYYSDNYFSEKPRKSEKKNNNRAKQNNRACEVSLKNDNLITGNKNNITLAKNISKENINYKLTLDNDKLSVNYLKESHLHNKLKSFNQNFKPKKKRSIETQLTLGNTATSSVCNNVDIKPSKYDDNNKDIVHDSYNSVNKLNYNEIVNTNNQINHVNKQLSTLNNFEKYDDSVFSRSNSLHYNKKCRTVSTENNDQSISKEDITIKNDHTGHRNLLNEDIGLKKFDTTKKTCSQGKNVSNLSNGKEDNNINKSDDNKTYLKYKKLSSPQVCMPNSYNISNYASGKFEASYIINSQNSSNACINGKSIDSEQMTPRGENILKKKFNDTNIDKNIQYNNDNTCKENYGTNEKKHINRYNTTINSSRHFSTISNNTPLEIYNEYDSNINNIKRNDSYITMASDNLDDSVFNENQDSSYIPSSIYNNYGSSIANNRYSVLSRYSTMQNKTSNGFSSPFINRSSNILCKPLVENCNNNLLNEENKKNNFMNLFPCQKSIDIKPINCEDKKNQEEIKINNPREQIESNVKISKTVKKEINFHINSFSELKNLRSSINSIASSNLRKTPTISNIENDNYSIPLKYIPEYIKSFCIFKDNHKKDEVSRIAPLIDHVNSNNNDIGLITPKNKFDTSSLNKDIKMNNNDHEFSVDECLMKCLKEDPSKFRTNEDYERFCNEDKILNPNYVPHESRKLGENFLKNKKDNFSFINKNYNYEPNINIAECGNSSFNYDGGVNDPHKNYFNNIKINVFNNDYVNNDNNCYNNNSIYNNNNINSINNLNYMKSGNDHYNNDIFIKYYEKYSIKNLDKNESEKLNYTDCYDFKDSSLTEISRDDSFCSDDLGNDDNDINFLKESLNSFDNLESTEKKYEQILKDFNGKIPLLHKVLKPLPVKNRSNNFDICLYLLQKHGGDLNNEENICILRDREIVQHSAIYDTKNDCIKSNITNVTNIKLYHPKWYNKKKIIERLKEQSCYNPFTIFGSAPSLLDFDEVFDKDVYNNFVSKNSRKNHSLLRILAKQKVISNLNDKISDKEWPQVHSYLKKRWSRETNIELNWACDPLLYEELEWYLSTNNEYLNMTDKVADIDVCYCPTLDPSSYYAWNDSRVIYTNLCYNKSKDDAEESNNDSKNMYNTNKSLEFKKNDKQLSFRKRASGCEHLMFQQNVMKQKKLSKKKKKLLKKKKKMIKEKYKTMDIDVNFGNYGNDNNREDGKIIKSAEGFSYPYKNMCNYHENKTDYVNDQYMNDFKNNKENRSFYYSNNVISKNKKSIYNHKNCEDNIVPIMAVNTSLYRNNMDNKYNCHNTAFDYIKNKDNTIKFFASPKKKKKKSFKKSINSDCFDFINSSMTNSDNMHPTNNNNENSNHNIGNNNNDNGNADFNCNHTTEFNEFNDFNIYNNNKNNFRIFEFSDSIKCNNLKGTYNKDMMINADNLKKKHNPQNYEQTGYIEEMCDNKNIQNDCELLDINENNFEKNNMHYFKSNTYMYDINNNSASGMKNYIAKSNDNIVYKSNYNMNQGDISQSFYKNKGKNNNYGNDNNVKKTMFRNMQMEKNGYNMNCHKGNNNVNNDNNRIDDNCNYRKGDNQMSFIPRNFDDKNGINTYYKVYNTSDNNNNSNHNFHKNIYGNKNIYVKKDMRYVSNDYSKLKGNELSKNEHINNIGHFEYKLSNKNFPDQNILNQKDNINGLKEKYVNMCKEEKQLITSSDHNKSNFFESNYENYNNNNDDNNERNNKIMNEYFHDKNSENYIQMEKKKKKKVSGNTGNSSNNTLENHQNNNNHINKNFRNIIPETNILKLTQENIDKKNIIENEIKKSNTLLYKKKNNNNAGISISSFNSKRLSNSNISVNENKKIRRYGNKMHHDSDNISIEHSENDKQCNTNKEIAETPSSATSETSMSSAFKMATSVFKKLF
UniProt A0A509AJF0: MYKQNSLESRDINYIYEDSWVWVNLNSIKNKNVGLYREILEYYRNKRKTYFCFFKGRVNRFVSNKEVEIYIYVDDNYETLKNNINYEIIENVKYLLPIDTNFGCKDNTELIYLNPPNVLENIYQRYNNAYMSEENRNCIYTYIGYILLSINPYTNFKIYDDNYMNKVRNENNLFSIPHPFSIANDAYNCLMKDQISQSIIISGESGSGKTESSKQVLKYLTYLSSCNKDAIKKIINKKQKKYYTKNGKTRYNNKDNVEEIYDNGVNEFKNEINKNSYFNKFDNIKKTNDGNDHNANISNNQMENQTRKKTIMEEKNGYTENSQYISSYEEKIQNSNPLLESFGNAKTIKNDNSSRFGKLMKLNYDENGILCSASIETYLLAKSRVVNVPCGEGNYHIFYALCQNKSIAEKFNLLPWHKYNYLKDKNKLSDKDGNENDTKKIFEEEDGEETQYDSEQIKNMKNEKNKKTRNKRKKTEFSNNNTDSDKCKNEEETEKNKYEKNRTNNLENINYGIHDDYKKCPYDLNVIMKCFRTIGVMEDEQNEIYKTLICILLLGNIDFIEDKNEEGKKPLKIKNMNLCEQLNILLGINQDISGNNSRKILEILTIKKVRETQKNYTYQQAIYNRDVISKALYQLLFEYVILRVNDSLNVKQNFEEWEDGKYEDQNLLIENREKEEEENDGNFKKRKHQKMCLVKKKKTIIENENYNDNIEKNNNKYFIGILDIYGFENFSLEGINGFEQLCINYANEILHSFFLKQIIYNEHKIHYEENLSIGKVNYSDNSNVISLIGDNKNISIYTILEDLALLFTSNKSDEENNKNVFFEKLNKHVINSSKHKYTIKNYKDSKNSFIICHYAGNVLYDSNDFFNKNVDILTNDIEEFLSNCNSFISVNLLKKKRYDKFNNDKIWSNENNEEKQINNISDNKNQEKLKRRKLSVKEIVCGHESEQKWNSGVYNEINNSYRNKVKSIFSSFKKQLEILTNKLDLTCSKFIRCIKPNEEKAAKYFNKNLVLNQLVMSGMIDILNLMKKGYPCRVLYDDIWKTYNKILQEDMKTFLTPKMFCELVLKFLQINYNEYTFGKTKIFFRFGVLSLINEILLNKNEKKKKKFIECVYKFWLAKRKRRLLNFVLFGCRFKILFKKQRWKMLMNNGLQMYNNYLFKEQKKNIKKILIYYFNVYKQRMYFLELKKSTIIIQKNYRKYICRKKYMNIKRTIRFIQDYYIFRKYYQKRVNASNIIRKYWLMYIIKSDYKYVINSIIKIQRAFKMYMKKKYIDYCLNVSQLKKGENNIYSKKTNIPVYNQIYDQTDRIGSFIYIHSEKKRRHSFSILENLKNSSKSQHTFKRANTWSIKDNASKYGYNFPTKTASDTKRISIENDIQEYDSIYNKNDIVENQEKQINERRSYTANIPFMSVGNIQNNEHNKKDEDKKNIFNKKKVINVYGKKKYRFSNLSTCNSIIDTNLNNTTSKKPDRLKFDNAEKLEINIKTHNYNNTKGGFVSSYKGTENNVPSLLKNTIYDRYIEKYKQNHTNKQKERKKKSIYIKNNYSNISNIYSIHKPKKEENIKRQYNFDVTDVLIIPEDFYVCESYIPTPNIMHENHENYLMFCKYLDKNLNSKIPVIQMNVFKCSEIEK

The substances below were run against EB1-GFP (Plasmodium berghei EB1, C-terminal GFP tag at the endogenous locus) (P. berghei) (assay: affinity purification with mass spectrometry; EB1-GFP captured on GFP-Trap_A beads (2 h, 4 °C) from lysates of purified gametocytes 1 min post activation, cross-linked with 1% formaldehyde; on-bead trypsin digestion, LC-MS/MS; WT-GFP gametocytes as control; duplicates; PCA of unique peptide values).

binding, binds:
INCENP2, CPC subunit (from UniProt A0A509AQF6 1-2305)
STU2 (from UniProt A0A509AS96 1-3198)
myosin K (from UniProt A0A509AJF0 1-1629)

Results are given in words; binding and its absence hold for the method and conditions named. In cells and extracts the contact can be indirect. These calls come from enrichment with a bait or labelling near it, and not all partners need be listed.
